{
  "source": "the supplement of paper PMC5355238",
  "note": "Counter-ions that a name gives are not always drawn. The list shows a part of the results. Most values lie at the level of the controls, where differences are scatter.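 Reh is a human leukemia cell line; the read-out is the median γH2AX antibody signal in S-phase cells by flow cytometry, with the score counting standard deviations from the median difference of each paired set of plates. Scores above 2.5 were called candidate hits, while scores below -2 mark compounds that lowered the MK1775-induced damage.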",
  "data": [
    {"tested_on": "Reh", "experiment": "Z' of S-phase gammaH2AX difference (drug + MK1775 minus drug alone) (Z-score); higher = stronger synergistic S-phase DNA damage with MK1775", "conditions": "MK1775 concentration 400 nM; first compound 10 µM; 4 h", "values": [
      {"smiles": "Oc1cc2c(cc1O)C(c1ccccc1)CNCC2", "note": "(centres undefined) + C=CCn1c(=O)c2cnc(Nc3ccc(N4CCN(C)CC4)cc3)nc2n1-c1cccc(C(C)(C)O)n1 [MK1775]", "Z' of S-phase gammaH2AX difference (Z-score)": "inactive: 0.712"},
      {"smiles": "Cc1cnc(Nc2ccc(OCCN3CCCC3)cc2)nc1Nc1cccc(S(=O)(=O)NC(C)(C)C)c1", "note": "+ C=CCn1c(=O)c2cnc(Nc3ccc(N4CCN(C)CC4)cc3)nc2n1-c1cccc(C(C)(C)O)n1 [MK1775]", "Z' of S-phase gammaH2AX difference (Z-score)": "inactive: -0.725"},
      {"smiles": "CCCNC(=O)NS(=O)(=O)c1ccc(Cl)cc1", "note": "[Chlorpropamide] + C=CCn1c(=O)c2cnc(Nc3ccc(N4CCN(C)CC4)cc3)nc2n1-c1cccc(C(C)(C)O)n1 [MK1775]", "Z' of S-phase gammaH2AX difference (Z-score)": "inactive: -0.167"},
      {"smiles": "N=C(N)NCCCCNC(=N)N", "note": "[Arcaine sulfate] + C=CCn1c(=O)c2cnc(Nc3ccc(N4CCN(C)CC4)cc3)nc2n1-c1cccc(C(C)(C)O)n1 [MK1775]", "Z' of S-phase gammaH2AX difference (Z-score)": "inactive: 0.227"},
      {"smiles": "Clc1cccc(Cl)c1NC1=NCCN1", "note": "[Clonidine hydrochloride] + C=CCn1c(=O)c2cnc(Nc3ccc(N4CCN(C)CC4)cc3)nc2n1-c1cccc(C(C)(C)O)n1 [MK1775]", "Z' of S-phase gammaH2AX difference (Z-score)": "inactive: 0.494"},
      {"smiles": "CN(C)S(=O)(=O)c1ccc2c(c1)/C(=C/c1cc3c([nH]1)CCCC3)C(=O)N2", "note": "+ C=CCn1c(=O)c2cnc(Nc3ccc(N4CCN(C)CC4)cc3)nc2n1-c1cccc(C(C)(C)O)n1 [MK1775]", "Z' of S-phase gammaH2AX difference (Z-score)": "inactive: -0.378"},
      {"smiles": "Cc1csc(-c2nnc(Nc3ccc(Oc4ncccc4-c4ccnc(N)n4)cc3)c3ccccc23)c1", "note": "+ C=CCn1c(=O)c2cnc(Nc3ccc(N4CCN(C)CC4)cc3)nc2n1-c1cccc(C(C)(C)O)n1 [MK1775]", "Z' of S-phase gammaH2AX difference (Z-score)": "inactive: -0.654"},
      {"smiles": "Nc1nc2c(ncn2COC(CO)CO)c(=O)[nH]1", "note": "[Ganciclovir] + C=CCn1c(=O)c2cnc(Nc3ccc(N4CCN(C)CC4)cc3)nc2n1-c1cccc(C(C)(C)O)n1 [MK1775]", "Z' of S-phase gammaH2AX difference (Z-score)": "inactive: 0.687"},
      {"smiles": "c1ccc2c(CCNc3ccc(Nc4ccncc4)cc3)c[nH]c2c1", "note": "+ C=CCn1c(=O)c2cnc(Nc3ccc(N4CCN(C)CC4)cc3)nc2n1-c1cccc(C(C)(C)O)n1 [MK1775]", "Z' of S-phase gammaH2AX difference (Z-score)": "inactive: 0.653"},
      {"smiles": "COc1c(C)cnc(Cn2cnc3c(Cl)nc(N)nc32)c1C", "note": "+ C=CCn1c(=O)c2cnc(Nc3ccc(N4CCN(C)CC4)cc3)nc2n1-c1cccc(C(C)(C)O)n1 [MK1775]", "Z' of S-phase gammaH2AX difference (Z-score)": "inactive: -0.191"},
      {"smiles": "Nc1nccc(Oc2ccc(NC(=O)c3c[nH]cc(-c4ccc(F)cc4)c3=O)cc2F)c1Cl", "note": "+ C=CCn1c(=O)c2cnc(Nc3ccc(N4CCN(C)CC4)cc3)nc2n1-c1cccc(C(C)(C)O)n1 [MK1775]", "Z' of S-phase gammaH2AX difference (Z-score)": "inactive: 0.623"},
      {"smiles": "NC(=O)Nc1cc(-c2cccc(F)c2)sc1C(=O)N[C@H]1CCCNC1", "note": "+ C=CCn1c(=O)c2cnc(Nc3ccc(N4CCN(C)CC4)cc3)nc2n1-c1cccc(C(C)(C)O)n1 [MK1775]", "Z' of S-phase gammaH2AX difference (Z-score)": "active: 3.53"},
      {"smiles": "O=C(c1ccc(F)cc1)C1CCN(CCn2c(=O)[nH]c3ccccc3c2=O)CC1", "note": "[Ketanserin tartrate] + C=CCn1c(=O)c2cnc(Nc3ccc(N4CCN(C)CC4)cc3)nc2n1-c1cccc(C(C)(C)O)n1 [MK1775]", "Z' of S-phase gammaH2AX difference (Z-score)": "inactive: -1.51"},
      {"smiles": "CCN(CC)C(=O)c1ccc(O)c(OC)c1", "note": "[Vanillic acid diethylamide] + C=CCn1c(=O)c2cnc(Nc3ccc(N4CCN(C)CC4)cc3)nc2n1-c1cccc(C(C)(C)O)n1 [MK1775]", "Z' of S-phase gammaH2AX difference (Z-score)": "inactive: -0.274"},
      {"smiles": "NC1(C(=O)O)CC1", "note": "[1-Aminocyclopropanecarboxylic acid hydrochloride] + C=CCn1c(=O)c2cnc(Nc3ccc(N4CCN(C)CC4)cc3)nc2n1-c1cccc(C(C)(C)O)n1 [MK1775]", "Z' of S-phase gammaH2AX difference (Z-score)": "inactive: 0"},
      {"smiles": "O=C(O)CCc1ccc(NCc2cccc(Oc3ccccc3)c2)cc1", "note": "+ C=CCn1c(=O)c2cnc(Nc3ccc(N4CCN(C)CC4)cc3)nc2n1-c1cccc(C(C)(C)O)n1 [MK1775]", "Z' of S-phase gammaH2AX difference (Z-score)": "inactive: 0.199"},
      {"smiles": "CSC(=N)N", "note": "[S-Methylisothiourea hemisulfate] + C=CCn1c(=O)c2cnc(Nc3ccc(N4CCN(C)CC4)cc3)nc2n1-c1cccc(C(C)(C)O)n1 [MK1775]", "Z' of S-phase gammaH2AX difference (Z-score)": "inactive: 1.22"},
      {"smiles": "O=C1NCC2(CCN(CCc3ccccc3)CC2)O1", "note": "[Fenspiride hydrochloride] + C=CCn1c(=O)c2cnc(Nc3ccc(N4CCN(C)CC4)cc3)nc2n1-c1cccc(C(C)(C)O)n1 [MK1775]", "Z' of S-phase gammaH2AX difference (Z-score)": "inactive: 0.342"},
      {"smiles": "Cl.N[C@@H](CCC(=O)O)C(=O)O", "note": "[L-Glutamic acid hydrochloride] + C=CCn1c(=O)c2cnc(Nc3ccc(N4CCN(C)CC4)cc3)nc2n1-c1cccc(C(C)(C)O)n1 [MK1775]", "Z' of S-phase gammaH2AX difference (Z-score)": "inactive: -0.00729"},
      {"smiles": "Cc1nc(-c2ccc(OCC(C)C)c(C#N)c2)sc1C(=O)O", "note": "[Febuxostat (Uloric)] + C=CCn1c(=O)c2cnc(Nc3ccc(N4CCN(C)CC4)cc3)nc2n1-c1cccc(C(C)(C)O)n1 [MK1775]", "Z' of S-phase gammaH2AX difference (Z-score)": "inactive: 0.106"},
      {"smiles": "Cc1nc(Nc2ncc(C(=O)Nc3c(C)cccc3Cl)s2)cc(N2CCN(CCO)CC2)n1", "note": "+ C=CCn1c(=O)c2cnc(Nc3ccc(N4CCN(C)CC4)cc3)nc2n1-c1cccc(C(C)(C)O)n1 [MK1775]", "Z' of S-phase gammaH2AX difference (Z-score)": "active: 7.22"},
      {"smiles": "CCN1CCN(Cc2ccc(-c3cc4c(N[C@H](C)c5ccccc5)ncnc4[nH]3)cc2)CC1", "note": "+ C=CCn1c(=O)c2cnc(Nc3ccc(N4CCN(C)CC4)cc3)nc2n1-c1cccc(C(C)(C)O)n1 [MK1775]", "Z' of S-phase gammaH2AX difference (Z-score)": "inactive: 0.0525"},
      {"smiles": "CC(C)c1ccc2c(c1)c(SC(C)(C)C)c(CC(C)(C)C(=O)O)n2Cc1ccc(Cl)cc1", "note": "+ C=CCn1c(=O)c2cnc(Nc3ccc(N4CCN(C)CC4)cc3)nc2n1-c1cccc(C(C)(C)O)n1 [MK1775]", "Z' of S-phase gammaH2AX difference (Z-score)": "inactive: 0.902"},
      {"smiles": "C=C1/C(=C\\C=C2/CCC[C@]3(C)[C@@H]([C@H](C)/C=C/[C@H](C)C(C)C)CC[C@@H]23)C[C@@H](O)C[C@@H]1O", "note": "[Doxercalciferol (Hectorol)] + C=CCn1c(=O)c2cnc(Nc3ccc(N4CCN(C)CC4)cc3)nc2n1-c1cccc(C(C)(C)O)n1 [MK1775]", "Z' of S-phase gammaH2AX difference (Z-score)": "inactive: 0.385"}
    ]}
  ]
}
